This is an account of results in doi:10.1101/2024.06.29.601315.

No constants are given. Whether binding was seen depends on the method and setting. Binding seen in cells or lysates may run through a third protein. Here binding means that the protein was enriched with, or labelled near, the bait; the list need not be complete.

The test has as its target Sequestosome 1 (SQSTM1)/p62 (human (endogenous in A549)) (UniProt Q13501). As to the kind of experiment: affinity purification with mass spectrometry.

Take RNF166 (from UniProt Q96A37 1-237): the binding entry was “binds”.
